# The full ranking holds about 33,000 sequences; the median of “E-score (-0.5 to 0.5)” is about -0.0059, and the highest 2% start at about 0.26. This is one part of the list.
# Biological target: T1, Cin5 (UniProt P40917)
# T1 sequence: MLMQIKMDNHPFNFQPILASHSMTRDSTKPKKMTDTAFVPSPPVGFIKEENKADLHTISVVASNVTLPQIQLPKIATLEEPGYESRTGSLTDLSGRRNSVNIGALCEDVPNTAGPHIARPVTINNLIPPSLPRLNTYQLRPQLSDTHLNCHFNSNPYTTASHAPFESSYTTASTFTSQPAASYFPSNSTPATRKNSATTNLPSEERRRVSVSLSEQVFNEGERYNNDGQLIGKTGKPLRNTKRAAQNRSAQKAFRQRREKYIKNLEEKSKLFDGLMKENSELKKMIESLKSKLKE
# Assay: PBM E-score (8-mer binding enrichment) (E-score (-0.5 to 0.5)); higher = stronger / more preferred TF binding
# Settings: protein concentration: 100 nM; construct: GST-full length
# Experimental: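 Universal 'all 10-mer' protein binding microarrays (Agilent AMADID 015681) probed with GST-tagged S. cerevisiae TFs (full-length or DBD) made by in vitro transcription/translation (PURExpress), about 100-200 nM. Bound TF was detected with fluorescent anti-GST. Each ungapped 8-mer (which stands for itself and its reverse complement) is scored by the PBM enrichment score (E-score), a modified Wilcoxon-Mann-Whitney statistic from -0.5 to +0.5, computed with the Universal PBM Analysis Suite. Scale: above 0.35 generally sequence-specific binding.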
row,Sequence,PBM E-score
1,GGAAGAAA,-0.0196
2,GCCAGGAC,-0.0814
3,AAAATATA,0.159
4,AGTTTGGA,0.103
5,ATGCAAGG,-0.187
6,CCCTTTGA,-0.184
7,GCCGCACA,-0.0858
8,ATATAACC,0.188
9,GCAGCCCA,-0.16
10,AAACCTAG,-0.0706
11,CTATAAAG,0.113
12,GATTTGCC,0.067
13,AATCAGGT,0.148
14,TCAACTCA,0.107
15,GAGCCAAA,-0.0438
16,AATCTCCC,-0.0945
17,AAGTTCAA,0.184
18,AGCTACCA,-0.00498
19,CTGTGGCC,-0.265
20,AGCTGTTC,-0.0725
21,CAATTAAG,0.0584
22,AAACAGGT,-0.0623
23,GACCGTGA,-0.189
24,AAAGCAAA,0.104
25,CACCCATC,0.0315

row,Sequence,PBM E-score
1,CTTTGGGC,-0.0244
2,CAACGCTA,-0.0242
3,CGCAACCA,0.131
4,ACGAATGG,0.113
5,AATGCGCT,0.0643
6,CATTGCAG,-0.0108
7,CGACGGTA,0.0903
8,GATTTCTA,0.138
9,AGTTGACC,0.00402
10,CCAGAGAC,-0.0858
11,CCCAGCAA,0.0592
12,GCTAACCC,-0.117
13,ATAGCTAG,-0.0369
14,CGAGAGGA,0.00075
15,GTCAAGGA,-0.0985
16,AAACCTAA,0.17
17,GAAGAACA,0.215
18,ACAGGAAG,-0.102
19,AACGAATT,0.137
20,GAAGATTA,0.197
21,TCATCACA,0.00441
22,CCAACAAA,0.024
23,ACACAGCT,-0.0388
24,TAGGTGCA,-0.0576
25,GTCGATAA,-0.00627

row,Sequence,PBM E-score
1,AGATGGAC,0.0596
2,AAAGAAGT,0.03
3,ACTGAGCA,0.0202
4,ATGGGGGA,-0.317
5,CAACTTGA,0.201
6,GACTCATC,-0.121
7,CAGGTGCC,-0.228
8,ACGCACGG,-0.0803
9,ATTCGGTA,0.0271
10,AGCCAAAG,-0.225
11,CCGTGTGA,-0.153
12,CGTGCAGA,-0.0801
13,TCTCGGAA,0.073
14,CATTCGAG,0.00359
15,AATTAAGG,-0.0926
16,AAATGTGC,0.16
17,TGCGACCA,0.114
18,GGCTCCGA,-0.0818
19,CAGGGAAC,0.0123
20,AAGAACCA,-0.0713
21,AATACGCT,0.155
22,AATTCAGT,0.0428
23,CAGATGGC,-0.172
24,CATATGGC,0.058
25,ACATGAAA,0.0637

# Rewritten tab-delimited: part of the list above.
row	Sequence	PBM E-score
6	GACTCATC	-0.121
7	CAGGTGCC	-0.228
8	ACGCACGG	-0.0803
9	ATTCGGTA	0.0271
10	AGCCAAAG	-0.225
11	CCGTGTGA	-0.153

# Additional results:

row,Sequence,PBM E-score
1,GTTGGTGA,0.137
2,ATTTGAGG,-0.117
3,GGTCACTA,-0.071
4,AATTACAT,0.322
5,CGGGACAA,-0.129
6,ACTAATAT,0.234
7,AACGCAAC,0.144
8,ATCGGTCG,-0.0812
9,GGTCTACA,-0.116
10,AAAGCTCG,-0.00313
11,GTAAATGA,0.164
12,GGCACCAA,0.0857
13,ATTCGGAC,0.149
14,GATGTAGA,0.0633
15,AAAGTGCA,0.054
16,ACCCATAC,0.162
17,ACTGCCCT,-0.0972
18,AAAAAGGC,0.0174
19,CAAACGGA,0.0359
20,ACACTGCG,-0.0729
21,CTACCTCC,-0.0402
22,AAGGAGGG,-0.0409
23,AGACACGC,-0.158
24,AATGGTAT,0.182
25,GAGACGCC,-0.072

row,Sequence,PBM E-score
1,GTAACTCA,-0.158
2,TCCAGACA,-0.146
3,GACTTGTA,-0.119
4,AGCCCAGG,-0.291
5,CCTCCTCA,-0.266
6,AACTGAGT,0.0446
7,ACAGCTGT,0.028
8,TAGCTACA,0.168
9,TAGCGAAA,0.104
10,TCGGCCGA,0.0246
11,ATCAAAGC,0.0273
12,ATGTGATG,-0.0963
13,TCACCGGA,0.0333
14,GGAGAAAC,-0.0254
15,CAAGAGAC,-0.183
16,ATCGCTGA,0.143
17,CGCGGCGC,0.0563
18,ACATAGAT,0.0439
19,CCCCTTTC,-0.326
20,CCCCACAC,-0.125
21,TTCAGCAA,0.103
22,ACAACCGC,0.188
23,TATCGGCA,-0.045
24,CCCCAATC,0.0551
25,ACTCGGAA,0.175

row,Sequence,PBM E-score
1,CGGGAGTA,0.0223
2,GCAACAGC,-0.107
3,ACCGCTCA,0.0166
4,GGGCCCAC,-0.128
5,ATTTCGAC,-0.0159
6,CGTCGCTC,-0.13
7,AATTTGAT,0.0581
8,AAGAGCGA,-0.161
9,GCAATCCA,0.0472
10,GAAACTCA,-0.0199
11,GTCATGAC,0.063
12,ACCAAATG,0.0735
13,ACCCTAGT,-0.122
14,CGAAACAA,0.157
15,GGGGTGCA,-0.0123
16,CGACTGCG,-0.0963
17,ACCATATA,0.223
18,CGGATAAG,0.0926
19,AATCTCGA,0.14
20,CGTGGCCC,-0.289
21,CGTACAAC,0.0268
22,ATGCACGC,0.00415
23,CAAGAAAC,0.218
24,ATGCGGGC,0.0795
25,CGGTGTTA,-0.0862

# Reformatted bar-delimited: entries from further up.
row | Sequence | PBM E-score
23 | AGACACGC | -0.158
24 | AATGGTAT | 0.182
25 | GAGACGCC | -0.072
1 | GTAACTCA | -0.158

# The list continues.

row,Sequence,PBM E-score
1,ACATCAGT,0.166
2,ACATTTCG,0.0106
3,GTCCTGCA,-0.16
4,ATGGTCCG,0.0526
5,CCCCCCGA,-0.384
6,GAAAGTTA,0.133
7,AATAAACT,0.09
8,CATGAGCG,0.124
9,GCCCTAGA,-0.32
10,GACCTATC,-0.0346
11,AAGCACGC,0.0796
12,ATGAGTAG,0.2
13,ACGTTGTC,-0.0279
14,CGAGACAG,0.0302
15,ACCAGGCT,-0.134
16,GGTTGGAA,0.0833
17,TGCCCACA,-0.174
18,GGCCACTA,-0.0458
19,CAACCCAA,-0.0203
20,GCCCCGTA,-0.0881
21,TCCTACAA,0.0683
22,AGTCGCAG,-0.154

# Source: the supplement of paper PMC3334620
